According to patent US20180119166A1:
No constants are given. Whether binding was seen depends on the method and setting. In cells and extracts the contact can be indirect. Some entries that bind do so weakly or less than the wild type. Where a sequence is shown, tags or fusion partners need not be part of it.

Chains of the proteins cited; added tags and fusions are not shown. Lines headed by an entry give the natural chain unless they say otherwise; changes in a name come on top. A line that says so, or that is headed by a name, gives the form on record, which may keep a tag or linker.
6x-histidine-fused LOS4 (LOS4-His) (Q93ZG7, form named): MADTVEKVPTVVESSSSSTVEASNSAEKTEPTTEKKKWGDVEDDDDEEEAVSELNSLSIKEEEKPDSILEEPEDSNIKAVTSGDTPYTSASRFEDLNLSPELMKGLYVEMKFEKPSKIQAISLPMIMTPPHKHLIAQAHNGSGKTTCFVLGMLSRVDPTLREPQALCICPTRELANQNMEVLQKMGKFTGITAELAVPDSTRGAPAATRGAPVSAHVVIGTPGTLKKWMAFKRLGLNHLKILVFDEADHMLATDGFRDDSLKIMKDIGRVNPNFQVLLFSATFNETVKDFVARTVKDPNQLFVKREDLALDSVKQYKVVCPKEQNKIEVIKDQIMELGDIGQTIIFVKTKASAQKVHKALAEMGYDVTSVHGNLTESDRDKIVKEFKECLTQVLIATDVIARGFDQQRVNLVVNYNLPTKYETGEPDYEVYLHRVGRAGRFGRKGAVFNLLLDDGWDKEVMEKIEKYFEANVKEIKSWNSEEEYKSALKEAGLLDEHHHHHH

Biological target: T1, maltose-binding protein (MBP)-fused Gle1 (MBP-Gle1) (Arabidopsis) (UniProt Q0WPZ7)
T1 sequence: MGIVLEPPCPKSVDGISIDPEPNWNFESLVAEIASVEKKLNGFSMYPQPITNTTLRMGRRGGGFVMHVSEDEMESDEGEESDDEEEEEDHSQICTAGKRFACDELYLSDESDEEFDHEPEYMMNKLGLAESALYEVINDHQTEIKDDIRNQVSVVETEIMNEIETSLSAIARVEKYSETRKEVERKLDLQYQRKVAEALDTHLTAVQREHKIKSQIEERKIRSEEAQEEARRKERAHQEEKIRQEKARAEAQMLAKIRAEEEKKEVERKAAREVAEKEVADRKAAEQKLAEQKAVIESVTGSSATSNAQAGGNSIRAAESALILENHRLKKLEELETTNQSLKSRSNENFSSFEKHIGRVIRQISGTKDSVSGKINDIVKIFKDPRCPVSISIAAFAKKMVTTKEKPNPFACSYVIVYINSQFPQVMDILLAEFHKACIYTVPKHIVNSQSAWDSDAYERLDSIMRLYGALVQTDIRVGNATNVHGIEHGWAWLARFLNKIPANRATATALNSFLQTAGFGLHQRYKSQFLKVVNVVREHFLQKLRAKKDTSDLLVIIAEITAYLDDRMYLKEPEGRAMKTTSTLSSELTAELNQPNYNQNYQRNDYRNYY
Test: in vitro pull-down on nickel resin, Coomassie blue staining

6x-histidine-fused LOS4 (LOS4-His) (from UniProt Q93ZG7 1-496) (enzyme)
binding: binds
